From patent publication US20250340651A1
No constants are given. Whether binding was seen depends on the method and setting. Some binding calls cover weakened binding; strength is not graded here.

Assays:
[1] = biological target: T1, Recombinant MICA*01 protein (Homo sapiens (Human)) (UniProt Q29983); assay: ELISA on plate-coated recombinant protein
T1 sequence: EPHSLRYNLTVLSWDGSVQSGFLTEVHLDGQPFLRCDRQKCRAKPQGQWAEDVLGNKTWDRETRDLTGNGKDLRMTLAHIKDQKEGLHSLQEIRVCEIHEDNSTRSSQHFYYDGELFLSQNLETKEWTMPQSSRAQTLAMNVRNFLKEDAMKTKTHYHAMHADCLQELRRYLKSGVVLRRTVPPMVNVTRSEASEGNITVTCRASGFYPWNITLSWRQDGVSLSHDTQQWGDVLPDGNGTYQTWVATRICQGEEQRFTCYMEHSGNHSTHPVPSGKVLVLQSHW

Recombinant MICB protein [2] = biological target: T2, Recombinant MICB protein (UniProt Q29980); assay: ELISA on plate-coated recombinant protein
T2 sequence (looked up): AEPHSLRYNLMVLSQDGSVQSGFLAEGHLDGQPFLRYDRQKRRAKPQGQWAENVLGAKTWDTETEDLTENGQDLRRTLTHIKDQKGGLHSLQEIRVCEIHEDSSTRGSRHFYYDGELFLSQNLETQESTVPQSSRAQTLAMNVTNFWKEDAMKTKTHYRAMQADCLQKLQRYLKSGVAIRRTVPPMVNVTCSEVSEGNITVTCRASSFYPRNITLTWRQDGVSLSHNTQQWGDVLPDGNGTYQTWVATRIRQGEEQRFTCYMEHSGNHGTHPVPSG

[3] = biological target: T1, Recombinant MICA*01 protein (Homo sapiens (Human)); assay: ELISA on coated recombinant antigen (1 µg/ml), goat anti-mouse IgG-HRP, OD 450 nm
Recombinant MICB protein [4] = biological target: T2, Recombinant MICB protein; assay: as above

Measured: binding

B1: 3F9.E4 (antibody, V domains shown)
VH: EVQLQESGEGLVKPGGSLKLSCAASGFTFSNYAMSWVRQTPEKRLEWVAYISPGGDYIYYADTVKGRFTISRDNARNTLYLQMSSLKSEDTAMYYCTTDRRHYGSYAMDYWGQGISVTVSS
VL: DIVMTQAAPSVPVTPGESVSISCRSSKSLLHSNGNTYLYWFLQRPGQSPQLLIYRMSNLASGVPDRFSGSGSGTAFTLRISRVEAEDVGVYYCMQHLEYPFTFGSGTKLEIK
binds: all assays above

B2: 16F10.C12 (antibody, V domains shown)
VH: EVQLQESGPGLVAPSQSLSITCTVSGFSLTAFGVNWVRQPPGKGLEWLGMIWGDGNTDYNSTLRSRLSISKDNSKSQVFLKLNSLQTDDTARYFCARETYYGNYAGLGYWGQGTLVTVSA
VL: QIVLTQSPAIMSASIGERVTMTCTASSSVSSNYLHWYQQKPRSSPKLWIYTTSNLASGVPTRFSGSGSGTSYSLTISSMEAEDAATYYCHQFHRSPFTFGSGTKLEIK
binds: all assays above
